This passage reports binding results from PMC2629585.

Sequences of proteins named here, by UniProt entry; tags and fusion partners are left off. A change or cut given only in a name is not applied to a line headed by its entry. Residues count along the entry.
UniProt Q15485, residues 26-313: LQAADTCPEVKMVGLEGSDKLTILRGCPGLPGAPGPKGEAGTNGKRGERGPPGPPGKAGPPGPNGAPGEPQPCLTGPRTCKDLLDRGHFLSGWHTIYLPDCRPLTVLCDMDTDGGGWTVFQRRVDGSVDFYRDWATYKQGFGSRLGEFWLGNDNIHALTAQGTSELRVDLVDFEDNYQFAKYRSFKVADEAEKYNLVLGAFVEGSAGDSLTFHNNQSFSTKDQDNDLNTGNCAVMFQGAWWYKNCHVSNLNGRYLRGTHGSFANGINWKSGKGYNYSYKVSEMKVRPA
UniProt O75636, residues 24-299: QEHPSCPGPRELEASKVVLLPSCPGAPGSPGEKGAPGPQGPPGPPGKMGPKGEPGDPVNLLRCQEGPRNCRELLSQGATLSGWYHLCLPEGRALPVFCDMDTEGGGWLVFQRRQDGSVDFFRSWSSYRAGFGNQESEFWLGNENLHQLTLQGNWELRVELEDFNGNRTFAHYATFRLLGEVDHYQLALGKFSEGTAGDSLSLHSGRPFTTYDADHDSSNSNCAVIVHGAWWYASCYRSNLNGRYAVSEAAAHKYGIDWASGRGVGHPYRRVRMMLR
UniProt O00602: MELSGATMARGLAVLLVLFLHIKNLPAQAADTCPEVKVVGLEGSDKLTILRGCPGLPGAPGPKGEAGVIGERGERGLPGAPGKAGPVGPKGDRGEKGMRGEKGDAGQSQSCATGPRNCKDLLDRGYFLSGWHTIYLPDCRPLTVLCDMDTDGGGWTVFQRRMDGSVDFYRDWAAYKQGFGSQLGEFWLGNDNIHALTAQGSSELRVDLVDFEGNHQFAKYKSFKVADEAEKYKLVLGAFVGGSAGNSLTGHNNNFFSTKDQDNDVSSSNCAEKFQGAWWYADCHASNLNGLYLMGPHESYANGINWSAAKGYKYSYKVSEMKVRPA
UniProt O00187, residues 16-686: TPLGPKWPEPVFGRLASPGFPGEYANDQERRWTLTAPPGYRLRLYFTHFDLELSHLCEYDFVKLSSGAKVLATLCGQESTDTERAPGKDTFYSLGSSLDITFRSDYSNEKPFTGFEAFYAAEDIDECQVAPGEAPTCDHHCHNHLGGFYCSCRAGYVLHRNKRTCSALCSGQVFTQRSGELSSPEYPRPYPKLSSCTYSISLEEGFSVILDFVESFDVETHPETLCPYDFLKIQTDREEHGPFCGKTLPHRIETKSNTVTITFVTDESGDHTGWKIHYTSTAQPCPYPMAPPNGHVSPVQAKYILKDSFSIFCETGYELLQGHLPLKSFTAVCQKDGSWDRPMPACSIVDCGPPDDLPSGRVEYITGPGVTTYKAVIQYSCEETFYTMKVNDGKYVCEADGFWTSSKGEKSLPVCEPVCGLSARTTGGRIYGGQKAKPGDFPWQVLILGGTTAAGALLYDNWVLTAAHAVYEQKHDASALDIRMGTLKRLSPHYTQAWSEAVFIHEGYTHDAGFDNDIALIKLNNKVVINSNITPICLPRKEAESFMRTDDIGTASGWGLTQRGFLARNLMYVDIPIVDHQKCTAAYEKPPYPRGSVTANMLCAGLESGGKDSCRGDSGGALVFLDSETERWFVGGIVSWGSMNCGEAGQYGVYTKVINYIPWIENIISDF

The target of assay [1] is T1, C-reactive protein (CRP), endogenous in human patient serum (human (endogenous in serum)) (UniProt P02741).
T1 sequence: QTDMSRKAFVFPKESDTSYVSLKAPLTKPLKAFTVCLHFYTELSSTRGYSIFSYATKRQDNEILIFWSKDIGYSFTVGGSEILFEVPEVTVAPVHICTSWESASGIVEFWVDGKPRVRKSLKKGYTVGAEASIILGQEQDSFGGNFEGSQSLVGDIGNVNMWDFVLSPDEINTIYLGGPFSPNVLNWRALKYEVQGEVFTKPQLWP
The experiment in a line: co-IP; 10% patient serum, 50 mM MES pH 6.5, 145 mM NaCl, 1% NP-40, 0 or 2 mM CaCl2; rabbit polyclonal anti-CRP, protein A Sepharose, 4 C; Western blot. On the technique in general: Immunoblotting shows a protein as a band on a membrane.

The target in assay [2] is T1, C-reactive protein (CRP), endogenous in human patient serum (human (endogenous in serum)). The experiment in a line: co-IP; 10% patient serum, 50 mM Tris pH 7.4, 145 mM NaCl, 1% NP-40, 0 or 2.5 mM CaCl2; rabbit polyclonal anti-CRP, protein A Sepharose, 4 C; Western blot.
The target in assay [3] is T2, C-reactive protein (CRP), human, purified (Sigma) (human) (UniProt P02741).
T2 sequence: T1 sequence
The experiment in a line: co-IP; 10% healthy serum reconstituted with 10 ug/ml CRP (text: pH and calcium adjusted to infection-inflammation condition; legend: pH 7.4, 2.5 mM calcium); rabbit polyclonal anti-CRP, protein A Sepharose; Western blot; only the target purified.

Assay [4] has as its target T2, C-reactive protein (CRP), human, purified (Sigma) (human). The experiment in a line: ELISA; 0.8 ug CRP immobilised on Maxisorp wells; 0, 0.5, 0.8 and 1 ug of L-, H- or M-ficolin added; bound ficolin detected by antibodies; HSA-coated wells subtracted; both purified.
The target in assay [5] is T3, CRP, yeast two-hybrid fusion (UniProt P02741).
T3 sequence: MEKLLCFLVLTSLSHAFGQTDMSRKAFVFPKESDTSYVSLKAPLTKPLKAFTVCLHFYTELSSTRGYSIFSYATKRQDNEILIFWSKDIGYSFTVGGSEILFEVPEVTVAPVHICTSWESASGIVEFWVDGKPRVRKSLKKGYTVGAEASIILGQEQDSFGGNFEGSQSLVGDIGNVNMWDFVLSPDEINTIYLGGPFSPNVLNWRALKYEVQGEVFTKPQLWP
The experiment in a line: two-hybrid; yeast two-hybrid; growth on QDO plates; empty vector controls for autoactivation.

The target in assay [6] is L-ficolin (human) (UniProt Q15485). The assay is described as follows: ELISA; competition; 0.8 ug L-ficolin immobilised; 0.8 ug CRP with increasing MASP-2 or 0.8 ug MASP-2 with increasing CRP; TBS, 0.05% Tween-20, 1% HSA, pH 7.4, 2.5 mM calcium; both purified.
Assay [7] has the same target. The experiment in a line: ELISA; competition; 0.8 ug L-ficolin immobilised; 0.8 ug CRP with increasing MASP-2 or 0.8 ug MASP-2 with increasing CRP; MBS, 0.05% Tween-20, 1% HSA, pH 6.5, 2 mM calcium; both purified.

These are yes or no findings as the source states them, for the method shown. For part of these data: In cells and extracts the contact can be indirect. Some entries that bind do so weakly or less than the wild type. For part of these data: Where a sequence is shown, tags or fusion partners need not be part of it.

For the substance H-ficolin (from UniProt O75636 24-299), the binding entry was “no binding” in assay [1], “no binding” in assay [2], “no binding” in assay [3] and “no binding (tested: up to 1 ug H-ficolin per well)” in assay [4]. Turning to L-ficolin (from UniProt Q15485 26-313), in assay [1], the binding result is listed as “binds”. For the substance “M-ficolin, recombinant (from UniProt O00602 30-326)”, the binding result in assay [4] was “binds”. As for “M-ficolin, yeast two-hybrid fusion (from UniProt O00602 1-326)”, the binding entry in assay [5] was “binds”. For “Recombinant MASP-2 (from UniProt O00187 16-686) (enzyme)”, the binding result in the assay with L-ficolin (human) [6] and in the assay with L-ficolin (human) [7] was “binds” in each case.
